Measured values taken from PubChem BioAssay AID504444 (National Center for Advancing Translational Sciences (NCATS), 2011).
In all, about 360,000 compounds went through this assay and about 7,500 (2.1%) were called active. This list was built around the results that the source calls inconclusive (neither active nor inactive); the mix of calls is not that of the screen. Calls follow the shape of the dose curve; as a rule, active = well fitted inhibition curve with a large enough effect; inconclusive = small, poorly fitted or top-dose-only effect, or effect the other way; inactive = flat fitted curve, though single readings scatter. Where the call is inconclusive, the potency comes from a doubtful curve fit.

Test: Nrf2 qHTS screen for inhibitors; also: nearly all actives have a fitted effect of over 60% in size
Settings: A549 ARE-Fluc reporter, luciferase luminescence, 18-24 h; series mostly up to 46 µM
Summary of the method: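 Concentration-response testing used A549 ARE_Fluc cells at 5000 cells/well. Following an 18-24 h compound incubation, viability was read by fluorescence (Ex 405/Em 525) and luciferase output by luminescence.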
Potency is read from the fitted curve at half-maximal effect.

Compound	Potency
COc1cc(C(C)=O)ccc1OCCCOc1cccc2cccnc12	inconclusive: 29.1 µM [activator, partial curve, poor fit]
COc1ccc(CNC(=O)CSc2nc3cccnc3s2)cc1	inconclusive: 10.3 µM [activator, partial curve]
COc1ccc(NS(=O)(=O)c2cccc(NC(=O)c3ccc(Cl)nc3)c2)cc1	active: 0.58 µM
COc1ccc(C)cc1NC(=O)C1CCN(S(=O)(=O)c2ccc3[nH]c(=O)oc3c2)CC1	inconclusive: 29.1 µM [falling, single point]
CCN(CC)C(=O)C1(P(=O)(c2ccccc2)c2ccccc2)CCC1	inconclusive: 0.326 µM [falling, partial curve, poor fit]
CC(C)(C)OC(=O)N1CCC(c2c(C(=O)Nc3ccc4c(c3)OCCO4)cnn2-c2ccc(Cl)cc2)CC1	inconclusive: 6.51 µM [activator, single point]
O=C1COc2ccc(C(=O)c3ccccc3C(=O)NCc3ccco3)cc2N1	inactive
COc1ccc(C(=O)c2oc3nc(C)cc(C)c3c2N)cc1	inactive
C[C@H]1CN([C@@H](C)CO)C(=O)c2cc(NC(=O)NC3CCCCC3)ccc2O[C@H]1CN(C)C(=O)Nc1ccc(C(F)(F)F)cc1	inconclusive: 3.66 µM [activator, full curve, poor fit]
CCC1CCCCN1CC(=O)Nc1cc(C)nn1-c1nc(C)cc(C)n1 (configuration not stated)	inconclusive: 23.1 µM [falling, partial curve, poor fit]
CCN(CC)S(=O)(=O)c1ccc(N2CCCC2)c(NC(=O)c2nn(C)c(=O)c3ccccc23)c1	inactive
Cc1cccc(NC(=O)c2cnc3scc(C)n3c2=O)c1	inconclusive: 3.26 µM [activator, full curve]
COc1ccccc1C(=O)COC(=O)c1cc(S(=O)(=O)N2CCCCC2)ccc1N1CCOCC1	inactive
CCn1ncc(S(=O)(=O)NCc2ccco2)c1C	inconclusive: 2.06 µM [activator, partial curve, poor fit]
O=C(CSc1nc2ccc(Nc3nc(N4CCOCC4)nc(N4CCOCC4)n3)cc2s1)Nc1ccccc1F	inconclusive: 25.9 µM [falling, partial curve, poor fit]
COc1ccc(-c2cn[nH]c2-c2ccc(OCc3ccccc3)cc2O)cc1OC	inconclusive: 2.31 µM [falling, full curve]
CCOc1ccc(NC(=O)CN2C(=O)CC(C)Sc3ccccc32)cc1 (configuration not stated)	inconclusive: 0.517 µM [activator, partial curve, poor fit]

Arranged by molar mass (rising): some entries from above.
Compound	Potency
COc1ccc(C(=O)c2oc3nc(C)cc(C)c3c2N)cc1	inactive
CCC1CCCCN1CC(=O)Nc1cc(C)nn1-c1nc(C)cc(C)n1 (configuration not stated)	inconclusive: 23.1 µM [falling, partial curve, poor fit]
O=C1COc2ccc(C(=O)c3ccccc3C(=O)NCc3ccco3)cc2N1	inactive
COc1ccc(NS(=O)(=O)c2cccc(NC(=O)c3ccc(Cl)nc3)c2)cc1	active: 0.58 µM
COc1ccc(C)cc1NC(=O)C1CCN(S(=O)(=O)c2ccc3[nH]c(=O)oc3c2)CC1	inconclusive: 29.1 µM [falling, single point]
